For some of these results: A negative result means that nothing was seen under these conditions. Where a protein sequence is shown, tags need not be part of it. For some of these results: A weaker result is weaker than the reference pair of the same experiment. For some of these results: The exact form of at least one protein or probe is not confirmed.
Tests used:
[1] = molecular target: T1, hRORα1 (RORA isoform 1) (Homo sapiens) (UniProt P35398); assay: activity in cells; details: protein in cells, protein details: expressed from pCDNA3/pCMX/pSG5 vectors, only the site is given
T1 sequence (looked up): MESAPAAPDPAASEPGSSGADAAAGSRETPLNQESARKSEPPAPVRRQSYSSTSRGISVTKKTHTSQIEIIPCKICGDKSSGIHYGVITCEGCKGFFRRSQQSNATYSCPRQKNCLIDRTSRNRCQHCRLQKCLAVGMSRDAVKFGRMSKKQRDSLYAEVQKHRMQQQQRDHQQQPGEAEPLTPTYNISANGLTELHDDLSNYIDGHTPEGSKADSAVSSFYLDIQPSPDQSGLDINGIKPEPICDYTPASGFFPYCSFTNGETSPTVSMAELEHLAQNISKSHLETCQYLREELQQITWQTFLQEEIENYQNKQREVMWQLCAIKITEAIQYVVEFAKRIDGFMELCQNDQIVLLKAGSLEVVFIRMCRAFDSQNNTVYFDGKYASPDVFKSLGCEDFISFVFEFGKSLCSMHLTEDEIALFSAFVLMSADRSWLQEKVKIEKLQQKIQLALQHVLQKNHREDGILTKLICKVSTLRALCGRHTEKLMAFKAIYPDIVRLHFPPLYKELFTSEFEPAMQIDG

[2] = molecular target: T1, hRORα1 (RORA isoform 1) (Homo sapiens); assay: EMSA; details: protein translated in vitro, protein details: TnT T7 reticulocyte lysate from pCMX-hRORα1, label: 5'-32P

GATCCAGACATAAATAGGCCCTGCAAGAGCA / GATCTGCTCTTGCAGGGCCTATTTATGTCTG [hAITaTa Tk reporter]
activity on this sequence ([1]; insensitive): not active

GATCCTCAGTGCCTGCTGCCCTGGAGATGATATAA / GATCTTATATCATCTCCAGGGCAGCAGGCACTGAG [(-27/-58) multimer Tk reporter]
activity on this sequence ([1]; insensitive): not active

GATCCTTGCCCAGCGCCCTGGGTCCTCAGTGCCTGA / GATCTCAGGCACTGAGGACCCAGGGCGCTGGGCAAG [(-47/-79) Tk reporter]
activity on this sequence ([1]; insensitive): not active

GATCTCAGCAGGTGACCTTTGCCCAGCGCCC / GATCGGGCGCTGGGCAAAGGTCACCTGCTGA [hCIIIC3PDR1WT (-90/-64)]
binding result [2]: binds more weakly

GATCTCATCTCCACTGGTCAGCAGGTGACCTTTGCCCAGCGCCCTG / GATCCAGGGCGCTGGGCAAAGGTCACCTGCTGACCAGTGGAGATGA [hCIII(-62/-102)]
binding result ([2]; specific but weak): binds more weakly

GATCTGATATAAAACAGGTGCGAACCCTC / GATCGAGGGTTCTGACCTGTTTTATATCA [hCIIITaTaWT (-34/-10)]
binding result [2]: binds

GGAAAAGTGTGTCACTGGGGCACG (double strand) [(RevDR2)3x Tk reporter]
activity on this sequence ([1]; increased sensitivity): active

— patent US6998254, “Use of ROR for receptors for screening substances useful for the treatment of atherosclerosis” (Merck Patent Gesellschaft)
